Results published in patent publication US11596716B2, “Compounds and matrices for use in bone growth and repair” (Human BioMolecular Research Institute, priority 2013, dated 2023).
Some of these results come from one statement about several compounds together.

Key:
[1] = system: Human embryonic stem cells E15 (hESCs); assay: qPCR of TLR4/TLR3 ratio and Collagen I in human embryonic stem cells E15; format: cell-based; details: otherwise identical conditions (500 nM, 8 days, calcium phosphate matrix)
Procedure: Human embryonic stem cells E15 (hESCs) obtained from ATCC with less than 15 passages were cultured at 37° C. in 5% CO2 in DMEM media supplemented with 15% heat inactivated FBS and 1× GlutaMax. TLRs are biomarkers of stem cell differentiation. TLR4 expression is an osteogenic biomarker and TLR3 expression is an adipogenic biomarker. […]

C2C12 cells [2] = assay: qPCR detection of osteogenic markers in C2C12 cells; format: cell-based, Mouse; details: 500 nM, 6 days; for expression of osteogenic biomarker (collagen/mRNA) with matrix: calcium phosphate ceramic 5 mg/mL, compared to treated cells without matrix; for expression of osteogenic biomarker (collagen/mRNA): no matrix, compared to untreated cells
C2C12 cells [3] = assay: Alkaline Phosphatase (ALP) functional activity assay in C2C12 cells; format: cell-based, Mouse; details: 500 nM; for ALP activity with calcium phosphate ceramic compared to cells treated without ceramic: ceramic 5 mg/mL
Procedure: Alkaline Phosphatase (ALP) Functional Activity Assay: C2C12 cells were plated into 12-well plates with 7,000 cells/well in 1 mL growth media. […] 1, 2, 3, or 4 in 0.1% DMSO was added (500 nM). Half the media was exchanged with fresh media containing compound every 48 hrs. After 6 days, media was removed, ALP Lysis Buffer (10 mM Tris-HCl pH 8.0, 1 mM MgCl2, and 1% Triton X100) added, and cell lysate obtained (10 min incubation at RT) by centrifugation (5 min at 3500× g at 4° C.). Para-nitrophenol phosphate (pNPP) (2 mg/mL) was incubated with 50 μl cell lysate (10 mins, 37° C.). After addition of […] 0.02 N NaOH, absorbance OD405 was measured. Protein concentration was determined by Bradford protein assay. Results of ALP activity were plotted as nM pNP hydrolyzed/mg total protein. After normalizing control samples (i.e., DMSO-treated samples) to one-fold, the fold-changes were plotted to indicate the relative ALP activity. […] This protocol was applied to hMSC and E15 cells as well.

hMSCs [4] = assay: TLR4/TLR3 mRNA expression ratio by qPCR in hMSCs; format: cell-based, human; details: 500 nM, 8 days
Text: TLRs are modulators of hMSC differentiation. TLRs (TLR1-10) mRNA could be detected by qPCR in hMSCs. TLR4 is a biomarker for osteogenesis and TLR3 is a biomarker for adipogenesis. […]

hMSCs [5] = assay: Alkaline Phosphatase functional activity assay in hMSCs; format: cell-based, human; details: 500 nM; for ALP functional activity greater than cells treated with calcium phosphate matrix alone: matrix 5 mg/mL, after 8 days of incubation; for ALP functional activity greater than DMSO-treated cells: no matrix
hMSCs [6] = assay: qPCR of target gene mRNA expression in hMSCs; format: cell-based, human; details: 500 nM, 8 days, over DMSO-treated cells
Procedure: qPCR detection of osteogenic markers: Cells were cultured with compound in the presence or absence of matrix as described above, but using 96-well plate format. Total RNA was extracted from cells (as above) using Trizol. cDNA was made using 750 ng of total RNA with Bio-Rad iscript kit and was diluted 20-fold before being used for qPCR. qPCR was conducted under the following conditions: 95° C., 2 min; 95° C., 10 s and 60° C., 45 s for 40 cycles; 60° C. for 71 cycles for melt curve. qPCR results were analyzed by the ΔΔCt method. 18s rRNA was used as an internal standard. This protocol was applied to hMSC and E15 cells.
Runx2 and BMP-2 are osteogenic markers; Axin2, Wnt3a, and Sox 9 are Wnt-inducible gene markers.
The assay for mRNA expression followed the same procedure with hMSCs as described for C2C12 cells (Example 7).

CC(=O)N1c2ccc(C)cc2[C@H](Nc2ccc(C)cc2)C[C@@H]1C (relative stereo) [Compound 1, cis-1-acetyl-2,6-dimethyl-N-(p-methylphenyl)-1,2,3,4-tetrahydroquinolin-4-amine]
increase in the TLR4/TLR3 gene expression ratio in E15 cells [1]: 3- to 4 fold | expression of osteogenic biomarker (collagen/mRNA) with matrix (C2C12 cells [2]): 10- to 90 fold | expression of osteogenic biomarker (collagen/mRNA) (C2C12 cells [2]): 1.2- to 5 fold | ALP activity with calcium phosphate ceramic compared to cells treated without ceramic (C2C12 cells [3]): 2.3- to 22 fold | increase in TLR4/TLR3 ratio in the presence of calcium phosphate matrix (hMSCs [4]): 5- to 9 fold | ALP functional activity greater than cells treated with calcium phosphate matrix alone (hMSCs [5]): up to 4.5 fold | ALP functional activity greater than DMSO-treated cells (hMSCs [5]): up to 2.6 fold | ALP mRNA Fold-Change +/− SD, −matrix (hMSCs [6]): up to 5 fold

Cc1nc2c(-c3ccccc3)cnn2c(NCCN(C)C)c1C [Compound 2, 3-phenyl-5,6-dimethyl-7-[N-(2-N,N-dimethylaminoethyl)amino]-pyrazolo[1,5-a]pyrimidine]
increase in the TLR4/TLR3 gene expression ratio in E15 cells [1]: 3- to 4 fold | expression of osteogenic biomarker (collagen/mRNA) with matrix (C2C12 cells [2]): 10- to 90 fold | expression of osteogenic biomarker (collagen/mRNA) (C2C12 cells [2]): 1.2- to 5 fold | ALP activity with calcium phosphate ceramic compared to cells treated without ceramic (C2C12 cells [3]): 2.3- to 22 fold | increase in TLR4/TLR3 ratio in the presence of calcium phosphate matrix (hMSCs [4]): 5- to 9 fold | ALP functional activity greater than cells treated with calcium phosphate matrix alone (hMSCs [5]): up to 4.5 fold | ALP functional activity greater than DMSO-treated cells (hMSCs [5]): up to 2.6 fold | ALP mRNA Fold-Change +/− SD, −matrix (hMSCs [6]): up to 5 fold

CC(C)[C@H](N)C(=O)Oc1ccc(/C=C/C(O)=C2\CCC/C(=C\c3ccc(OC(=O)[C@@H](N)C(C)C)cc3)C2=O)cc1 [Compound 4, 4-((1E,3Z)-3-(3-((E)-4-((L-valyl)oxy)benzylidene)-2-oxocyclohexylidene)-3-hydroxyprop-1-en-1-yl)phenyl L-valinate]
expression of osteogenic biomarker (collagen/mRNA) with matrix (C2C12 cells [2]): 10- to 90 fold | expression of osteogenic biomarker (collagen/mRNA) (C2C12 cells [2]): 1.2- to 5 fold | ALP activity fold-changes +/− SD, −matrix (C2C12 cells [3]; 6 days of culture, absence of matrix, versus untreated (DMSO) cells): 1.7- to 6 fold | ALP activity with calcium phosphate ceramic compared to cells treated without ceramic (C2C12 cells [3]): 2.3- to 22 fold | ALP functional activity greater than cells treated with calcium phosphate matrix alone (hMSCs [5]): up to 4.5 fold | ALP functional activity greater than DMSO-treated cells (hMSCs [5]): up to 2.6 fold | ALP mRNA Fold-Change +/− SD, −matrix (hMSCs [6]): up to 5 fold
